PubChem BioAssay AID1259254 – NCATS, 2017
Shown is one part, drawn at random, of about 59,000 reagents tested. About 1,550 of them (2.6%) were called active. 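G2 share is only a proxy for re-replication; each gene was hit by three separate siRNAs, and active genes were retested.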 Raw values are not corrected between plates. The numbers tell different reagents against one gene apart. Not stated in the record: the amount of reagent.

Test: 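Gene knock-downs that lead to re-replication, shown by excess G2 DNA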 (primary screen)
System: human HCT116 colorectal cancer cells
Reagents: single siRNA against human genes
Timing: 3 days
Read-out: 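Nuclei stained with Hoechst and imaged; cell-cycle phase assigned by DNA content; G2 share scaled per plate, non-targeting siRNA 0%, GMNN siRNA 100%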
Direction: G2 robust z-score and G2 cells, % of GMNN control: higher = more G2 cells, more excess DNA replication; raw share of cells in G2: higher = larger share of cells with G2 DNA content
Hit rule: 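Active siRNAs have a G2 robust z of 5 or more median absolute deviations over the median, which in these data means about 38% or higher of GMNN control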

| target | reagent no. | G2 robust z-score | G2 cells, % of GMNN control | raw share of cells in G2 (%) | activity call |
| --- | --- | --- | --- | --- | --- |
| CCDC9B (GeneID 388115) | 1 | 0.316 | 5.19 | 5.55 | inactive |
| CCDC9B (GeneID 388115) | 2 | -0.498 | -0.538 | 3.17 | inactive |
| CCDC9B (GeneID 388115) | 3 | 2.05 | 17.4 | 12.1 | inactive |
| PSMA1 (GeneID 5682) | 1 | 2.29 | 19.1 | 12.2 | inactive |
| PSMA1 (GeneID 5682) | 2 | 2.65 | 21.6 | 12.6 | inactive |
| PSMA1 (GeneID 5682) | 3 | 0.955 | 9.69 | 7.52 | inactive |
| PDGFD (GeneID 80310) | 1 | 1.56 | 13.9 | 11.2 | inactive |
| PDGFD (GeneID 80310) | 2 | 3.61 | 28.4 | 14.5 | inactive |
| PDGFD (GeneID 80310) | 3 | 3.02 | 24.2 | 13.8 | inactive |
| ELMOD2 (GeneID 255520) | 1 | -1.31 | -6.27 | 1.31 | inactive |
| ELMOD2 (GeneID 255520) | 2 | -0.721 | -2.11 | 2.41 | inactive |
| ELMOD2 (GeneID 255520) | 3 | 2.87 | 23.2 | 10.6 | inactive |
| CIDEA (GeneID 1149) | 1 | 6.37 | 47.8 | 27.7 | active |
| CIDEA (GeneID 1149) | 2 | -0.42 | 0.011 | 4.09 | inactive |
| CIDEA (GeneID 1149) | 3 | 1.06 | 10.4 | 7.61 | inactive |
| SLC24A4 (GeneID 123041) | 1 | -0.679 | -1.81 | 3.8 | inactive |
| SLC24A4 (GeneID 123041) | 2 | 0.178 | 4.22 | 6.78 | inactive |
| SLC24A4 (GeneID 123041) | 3 | -0.722 | -2.11 | 4.69 | inactive |
| BAHCC1 (GeneID 57597) | 1 | -0.64 | -1.53 | 5.01 | inactive |
| BAHCC1 (GeneID 57597) | 2 | 0.598 | 7.17 | 6.83 | inactive |
| BAHCC1 (GeneID 57597) | 3 | -0.948 | -3.7 | 3.04 | inactive |
| OR11H4 (GeneID 390442) | 1 | -0.952 | -3.73 | 2.49 | inactive |
| OR11H4 (GeneID 390442) | 2 | 1.54 | 13.8 | 9.4 | inactive |
| OR11H4 (GeneID 390442) | 3 | 2.17 | 18.2 | 12.4 | inactive |

Hits, among the entries above:
| target | reagent no. | G2 robust z-score | G2 cells, % of GMNN control | raw share of cells in G2 (%) | activity call |
| --- | --- | --- | --- | --- | --- |
| CIDEA (GeneID 1149) | 1 | 6.37 | 47.8 | 27.7 | active |

Further records follow.
| target | reagent no. | G2 robust z-score | G2 cells, % of GMNN control | raw share of cells in G2 (%) | activity call |
| --- | --- | --- | --- | --- | --- |
| DEFA5 (GeneID 1670) | 1 | -1.43 | -7.11 | 1.48 | inactive |
| DEFA5 (GeneID 1670) | 2 | 0.125 | 3.85 | 5.03 | inactive |
| DEFA5 (GeneID 1670) | 3 | 0.678 | 7.74 | 8.93 | inactive |
| ZNF600 (GeneID 162966) | 1 | 0.635 | 7.43 | 5.65 | inactive |
| ZNF600 (GeneID 162966) | 2 | 0.36 | 5.5 | 5.07 | inactive |
| ZNF600 (GeneID 162966) | 3 | 0.883 | 9.18 | 6.75 | inactive |
| UBE2B (GeneID 7320) | 1 | -1.29 | -6.09 | 3.02 | inactive |
| UBE2B (GeneID 7320) | 2 | 2.72 | 22.1 | 11.8 | inactive |
| UBE2B (GeneID 7320) | 3 | -0.586 | -1.16 | 3.83 | inactive |
| ZBTB46 (GeneID 140685) | 1 | -0.586 | -1.15 | 2.69 | inactive |
| ZBTB46 (GeneID 140685) | 2 | -0.0308 | 2.75 | 4.12 | inactive |
| ZBTB46 (GeneID 140685) | 3 | -0.0765 | 2.43 | 4.38 | inactive |
| APOA2 (GeneID 336) | 1 | 0.457 | 6.18 | 6.82 | inactive |
| APOA2 (GeneID 336) | 2 | 2.94 | 23.7 | 13.5 | inactive |
| APOA2 (GeneID 336) | 3 | -0.474 | -0.367 | 3.85 | inactive |
| LRGUK (GeneID 136332) | 1 | 6.19 | 46.5 | 19.9 | active |
| LRGUK (GeneID 136332) | 2 | -0.932 | -3.59 | 3.22 | inactive |
| LRGUK (GeneID 136332) | 3 | 2.96 | 23.8 | 10.7 | inactive |
| SHISA5P1 (GeneID 643043) | 1 | -0.442 | -0.142 | 3.1 | inactive |
| SHISA5P1 (GeneID 643043) | 2 | -0.36 | 0.438 | 3.8 | inactive |
| SHISA5P1 (GeneID 643043) | 3 | 0.0695 | 3.46 | 4.52 | inactive |
| ARL14 (GeneID 80117) | 1 | -0.192 | 1.61 | 5.38 | inactive |
| ARL14 (GeneID 80117) | 2 | 2.79 | 22.6 | 12.4 | inactive |
| ARL14 (GeneID 80117) | 3 | 3.62 | 28.5 | 17.3 | inactive |
